Values are the deposited “Percent Effect”, in %.
How 0% and 100% were set is not recorded. Most values in the screen are low, and negative values occur.
The compounds are a random part of those screened.
Two or more numbers in one place are separate tests of the same structure; such repeats can differ widely.

Mtb glucose medium: 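Whole-cell growth test on Mycobacterium tuberculosis, read after 3 days in glucose-containing 7H9 medium; the read-out is not stated. Concentration: 50 µM. Direction is inferred from retests: higher values go with more growth inhibition. About 69,000 compounds were tested under these conditions; 1.1% (about 760) showed 50% or more at least once.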
Mtb cholesterol medium: 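Growth of Mycobacterium tuberculosis over 4 days (cholesterol / DPPC medium with tyloxapol); the read-out is not stated. Concentration: 50 µM. Higher reads as more growth inhibition (inferred: compounds with an IC50 in retests scored well above the rest). Size under these conditions: about 69,000 compounds, about 370 of them at 50% or above in at least one test.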

| structure | Mtb glucose medium | Mtb cholesterol medium |
|---|---|---|
| `COc1ccc(N2Cc3n[nH]c(=O)n3C2=O)cc1` | 11.72% | -12.48% |
| `Cc1nccc(-c2ccccc2)c1C(=O)N1CCC2(CN(C)C(=O)O2)C1` (stereo not given) | 9.015% | -11.27% |
| `Cc1cc(-c2ccnn2C)nc(C2CCN(S(C)(=O)=O)CC2)n1` | -19.69% | -13.31% and -6.742% |
| `CC(NC(=O)N1CCNC(=O)CC1)c1ccc(OC(F)F)cc1` (stereo not given) | -15.11% | -6.983% |
| `Cc1noc(C)c1-c1ccc(C2CCCN2C(=O)Cn2ccnc2)nc1` (stereo not given) | 17.97% | 4.002% |
| `CC1CCN(CC(=O)NC(C#N)c2cnn(-c3ccccc3)c2)CC1` (stereo not given) | 9.525% | 0.9181% |
| `[H][C@]12CC[C@]([H])(CN(S(=O)(=O)c3ccc(OC)cc3)C1)N(CCOC)C2=O` | 12.69% | 2.492% |
| `O=C(Cc1ccc(F)cc1F)NCC(=O)Nc1ccccn1` | -14.24% and -7.148% | -21.32% |
| `O=C(NCC(F)(F)F)C1CSCN1S(=O)(=O)c1ccc(F)cc1` (stereo not given) | -2.608% | -11.15% |
| `CN(C)C1CCCN(C(=O)c2ccc3sc4c(c3c2)CCNC4=O)CC1` (stereo not given) | 12.3% | 2.1% and -6.055% |
| `O=C(O)CC(NC(=O)CCCc1cccs1)c1ccc(F)cc1` (stereo not given) | 10.73% | -7.607% |
| `CCc1ccc(C(NC(=O)CCS(C)(=O)=O)C(C)(C)C)o1` (stereo not given) | -31.61% and -6.134% | -11.71% |
| `COc1cc2cc(C(=O)NCCC(=O)O)n(C)c2c(OC)c1OC` | -20.38% | -21.36% |
| `COc1cc(CCC(=O)N2CCC(c3cc4nccnc4[nH]3)CC2)on1` | 15.77% | 26.47% and 46.04% |
| `OCCOc1cc(F)ccc1NCc1cccc(F)c1F` | 10.6% | 9.247% |
| `O=C(O)C(F)(F)F.O=C(O)C(F)(F)F.O=C(O)C(F)(F)F.[H][C@]12C[C@@H](CN3CCCC3)N(C(C)C)[C@@]1([H])CCN(Cc1ccoc1)C2` | -13.5% and 71.33% | 4.301% |
| `Cc1cc(S(=O)(=O)N2CCC(N3CCC(O)C3)CC2)c(Cl)cc1Cl` (stereo not given) | 30.21% | 19.49% |
| `CCOc1ccc2cc(C(=O)NCCNc3ccc(C)nn3)[nH]c2c1` | -2.374% | -0.2731% |
| `COc1ccnc(N2CCN(C(=O)c3cc(C4CC4)[nH]n3)CC2)n1` | 2.189% and 6.805% | -8.74% |
| `O=C(NCC(F)(F)F)C(c1cccnc1)N1CCOCC1` (stereo not given) | 11.44% | -10.02% |
| `CC(=O)Nc1ncc(S(=O)(=O)N2CCCC(C)C2)s1` (stereo not given) | 11.52% | -8.408% |
| `CC(C)CN1CCN(C(=O)CCn2cccn2)CC1` | 15.66% | -2.77% |
| `CCOc1cccc(NC(=O)Cc2cccc(O)c2)n1` | -20.22% | -11.72% |
| `Cc1nnc(CN(Cc2ccccc2C(F)(F)F)C2CC2)o1` | 22.6% and 10.5% | 10.13% |
| `O=C(O)C(F)(F)F.O=C(O)C(F)(F)F.O=C1CC[C@]2(CC[C@@H](NCc3cccnc3)CC2)N1Cc1ccccc1` | -4.222% | -7.035% |
| `CN(C)Cc1nn(C)c2c1CCN(C(=O)c1cccnc1)C2` | 7.014% | -4.952% and -0.5391% |
| `COc1cc(N2CCc3ncnc(-c4cnn(C)c4)c3CC2)ncn1` | -24.44% and 2.584% | -3.57% |
| `COC(=O)CCC(=O)N1CCc2nc(C(=O)N3CCCCC3)sc2CC1` | -0.05335% and -3.457% | 6.734% |
| `COc1ccc(Br)c(C(=O)NCC2CC2)c1` | -6.659% | -9.662% and 3.256% |
| `CC[C@H]1N(Cc2ccco2)CCC[C@]12CCC(=O)N2C` | -12.16% | -7.277% and -6.534% |
| `COc1ccc2c3c1CN(C(C)=O)CC3=CC(C)(C)CO2` | 34% | 2.279% |
| `NC(=O)CN(CC(=O)NCCc1c(F)cccc1F)C1CCCC1` | 22.38% | -1.438% |
| `Cc1cccc(Oc2nccnc2C2CCN(C(=O)C(C)(C)N)CC2)c1` | 21.96% | -5.462% |
| `COc1ccc(CN(C)C(=O)NCc2c(C)cc(C)[nH]c2=O)cc1` | 5.806% | 18.87% |
| `[H][C@@]12C[C@@H](C)O[C@]1([H])CN(C(=O)C1=CCCCC1)C2` | 2.89% | 26.29% |
| `O=C(NCC1(O)CCC1)c1cccc(-n2cccn2)c1` | 20.55% | 12.06% |
| `CN(C)S(=O)(=O)N1CCC(c2ccnc(Nc3ccccn3)n2)C1` (stereo not given) | 1.787% | -1.155% |
| `Cc1cc(C)cc(CCC(=O)N2CCN(c3cc(C)nc(N)n3)CC2)c1` | -1.502% and 21.49% | -5.251% |
| `O=C(C1CNCCO1)N1CCCC(c2ccccc2)(c2ccccc2)C1` (stereo not given) | 19.05% | -13.69% |
| `Cn1cc(C2CC(=O)NC23CCN(C(=O)Cc2ccccn2)CC3)cn1.O=C(O)C(F)(F)F` (stereo not given) | 11.36% | -8.076% |
| `CC(C)[C@]1(O)CN(C(=O)COCC(N)=O)C[C@H]1C` | -32.67% | -26.41% and -17.34% |
| `O=C(N1CCCCC1)N1CCN(c2ccc(Cl)nn2)C(=O)C1` | 0.9233% | -11.76% |
| `OC1(CN2CCCC2)COCCN(c2ncnc3[nH]cnc23)C1` (stereo not given) | 14.88% | -1.495% and -0.4304% |
| `COc1cc(CN(CCCN(C)C)Cc2ccccn2)cc2c1OCO2.O=C(O)CC(O)(CC(=O)O)C(=O)O` | -2.057% | 14.69% |
| `Cc1ncc(-c2ccnc(N3CCN(C)CC3)n2)c(-c2cccnc2)n1` | -22.71% | -9.253% |
| `COc1ccccc1OC1CCN(C(=O)c2cnc(C)s2)CC1` | 7.587% and 27.91% | 18.15% |
| `CC(C)(C)c1nc(NS(=O)(=O)c2ccccc2F)no1` | -3.471% | 21.67% |
| `CCCN1CC2(CCN(C)CC2)CC1C(=O)NCCn1ccc(C)n1` (stereo not given) | -10.13% | -5.1% |
| `Cc1nnc(C2CCN(c3ccc(F)cc3)CC2)o1` | 11.69% | -1.431% |
| `CCCc1nnc(NC2CCN(C3CCSCC3)CC2)o1` | 13.83% | -3.235% |
| `CC(C)NC(=O)c1n[nH]c(-n2cnnc2)n1` | 15.45% | 5.696% |
| `CC(C)c1cnc(CN(C)C2CCN(CCc3ccccn3)C2)o1` (stereo not given) | -1.496% and 0.9612% | -26.67% |
| `CCN1CCCC(c2nc(O)c3cc(C)ccc3n2)C1` (stereo not given) | -7.984% | -25.72% |
| `O=C(COc1cccnc1)N1CCOC(C(F)(F)F)C1` (stereo not given) | 7.241% and -2.665% | 3.226% |
| `O=C(Cc1ccc(-n2cccn2)cc1)N1CCCC(n2cccn2)C1` (stereo not given) | -3.507% | 73.22% |
| `CCOC1COC2(CCN(Cc3ccco3)CC2)C1.O=C(O)C(F)(F)F` (stereo not given) | -6.621% | 5.746% |
| `Cc1ccc(-c2nc(CN3CCCC3Cn3cc(C)cn3)no2)cc1` (stereo not given) | 15.44% | -24.77% |
| `CN(Cc1cn[nH]c1-c1ccc(F)cc1)C(=O)CCC1CC1` | -1.186% | 4.859% |
| `Cc1ccc(C)c(CN2CCCn3nc(CNS(C)(=O)=O)cc3C2)c1` | -16.12% | -11.54% |

The values are deposited in ChEMBL (CHEMBL3988442, “University of Dundee, Small-Polar-MMV Screening Library” (2021)).